From publication PMC11477372
No constants are given. Whether binding was seen depends on the method and setting. Some entries that bind do so weakly or less than the wild type. For some assays here: Tags and fused reporters may be left off the sequences shown.

Sequences of proteins named here, by UniProt entry; tags and fusion partners are left off.
UniProt P63086: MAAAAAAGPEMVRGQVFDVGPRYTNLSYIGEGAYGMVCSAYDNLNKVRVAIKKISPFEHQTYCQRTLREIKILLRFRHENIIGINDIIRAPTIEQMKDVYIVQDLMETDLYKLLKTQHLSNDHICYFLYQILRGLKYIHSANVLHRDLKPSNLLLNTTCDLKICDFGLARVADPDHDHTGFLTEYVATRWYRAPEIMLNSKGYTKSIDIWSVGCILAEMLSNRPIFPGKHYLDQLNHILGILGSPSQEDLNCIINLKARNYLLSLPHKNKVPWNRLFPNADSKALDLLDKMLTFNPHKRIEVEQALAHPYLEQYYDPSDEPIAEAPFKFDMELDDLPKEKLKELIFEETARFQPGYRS
UniProt P63104: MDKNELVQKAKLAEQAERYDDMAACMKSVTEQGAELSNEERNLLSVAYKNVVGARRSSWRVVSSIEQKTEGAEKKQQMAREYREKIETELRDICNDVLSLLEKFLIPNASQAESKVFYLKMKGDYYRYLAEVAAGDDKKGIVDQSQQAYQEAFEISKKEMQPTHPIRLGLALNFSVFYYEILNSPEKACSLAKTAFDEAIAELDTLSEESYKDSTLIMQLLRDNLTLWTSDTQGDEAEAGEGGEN

Key:
[1] = target: T1, PKCδ–mRFP–KSR1 (UniProt Q8IVT5); assay: translocation-based cellular assay (co-translocation of eGFP-prey with PKCδ–mRFP-bait to the plasma membrane, confocal imaging); living HEK-293T cells co-transfected with one bait and one prey; serum-starved 16–18 h, 100 ng/mL EGF for 5 min, then 1 μM PMA in serum-free DMEM; 37 °C; images 3–5 min after PMA
T1 sequence: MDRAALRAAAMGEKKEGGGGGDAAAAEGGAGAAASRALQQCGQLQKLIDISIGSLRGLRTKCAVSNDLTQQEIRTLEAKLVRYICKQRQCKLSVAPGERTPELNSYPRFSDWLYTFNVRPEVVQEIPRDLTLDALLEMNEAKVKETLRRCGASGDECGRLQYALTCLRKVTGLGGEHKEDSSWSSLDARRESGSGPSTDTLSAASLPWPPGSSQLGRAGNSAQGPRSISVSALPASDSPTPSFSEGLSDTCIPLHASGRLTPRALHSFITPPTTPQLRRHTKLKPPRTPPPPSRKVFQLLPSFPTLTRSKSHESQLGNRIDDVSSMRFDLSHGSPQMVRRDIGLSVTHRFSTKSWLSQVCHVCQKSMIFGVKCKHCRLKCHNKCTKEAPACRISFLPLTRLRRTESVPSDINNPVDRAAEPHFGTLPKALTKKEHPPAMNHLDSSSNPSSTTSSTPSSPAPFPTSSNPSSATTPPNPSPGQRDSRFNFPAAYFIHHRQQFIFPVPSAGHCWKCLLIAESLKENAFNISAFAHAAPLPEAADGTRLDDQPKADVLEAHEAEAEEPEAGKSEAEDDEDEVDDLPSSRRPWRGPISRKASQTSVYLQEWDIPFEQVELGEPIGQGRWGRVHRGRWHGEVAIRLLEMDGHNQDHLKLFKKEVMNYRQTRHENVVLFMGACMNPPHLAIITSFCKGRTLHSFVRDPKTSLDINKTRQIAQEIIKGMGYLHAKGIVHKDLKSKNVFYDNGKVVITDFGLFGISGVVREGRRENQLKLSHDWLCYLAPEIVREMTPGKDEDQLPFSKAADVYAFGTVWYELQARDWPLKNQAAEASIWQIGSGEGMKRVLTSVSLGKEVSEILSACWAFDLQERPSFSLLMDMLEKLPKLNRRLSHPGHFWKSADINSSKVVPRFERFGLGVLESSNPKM

[2] = target: T1, PKCδ–mRFP–KSR1; assay: translocation-based cellular assay (co-translocation of eGFP-prey with PKCδ–mRFP-bait to the plasma membrane, confocal imaging); living HEK-293T cells co-transfected with one bait and one prey; quiescent cells, without serum or EGF stimulation; PMA treatment; images 3–5 min after PMA
[3] = target: T2, TagBFP–KSR1 (UniProt Q8IVT5); assay: translocation-based cellular assay (co-translocation of eGFP-prey with PKCδ–mRFP-bait to the plasma membrane, confocal imaging); living HEK-293T cells co-transfected with three constructs (PKCδ–mRFP–MEK2 bait, TagBFP–KSR1, eGFP–14-3-3ζ); quiescent cells, no EGF; PMA treatment; images 3–5 min after PMA
T2 sequence: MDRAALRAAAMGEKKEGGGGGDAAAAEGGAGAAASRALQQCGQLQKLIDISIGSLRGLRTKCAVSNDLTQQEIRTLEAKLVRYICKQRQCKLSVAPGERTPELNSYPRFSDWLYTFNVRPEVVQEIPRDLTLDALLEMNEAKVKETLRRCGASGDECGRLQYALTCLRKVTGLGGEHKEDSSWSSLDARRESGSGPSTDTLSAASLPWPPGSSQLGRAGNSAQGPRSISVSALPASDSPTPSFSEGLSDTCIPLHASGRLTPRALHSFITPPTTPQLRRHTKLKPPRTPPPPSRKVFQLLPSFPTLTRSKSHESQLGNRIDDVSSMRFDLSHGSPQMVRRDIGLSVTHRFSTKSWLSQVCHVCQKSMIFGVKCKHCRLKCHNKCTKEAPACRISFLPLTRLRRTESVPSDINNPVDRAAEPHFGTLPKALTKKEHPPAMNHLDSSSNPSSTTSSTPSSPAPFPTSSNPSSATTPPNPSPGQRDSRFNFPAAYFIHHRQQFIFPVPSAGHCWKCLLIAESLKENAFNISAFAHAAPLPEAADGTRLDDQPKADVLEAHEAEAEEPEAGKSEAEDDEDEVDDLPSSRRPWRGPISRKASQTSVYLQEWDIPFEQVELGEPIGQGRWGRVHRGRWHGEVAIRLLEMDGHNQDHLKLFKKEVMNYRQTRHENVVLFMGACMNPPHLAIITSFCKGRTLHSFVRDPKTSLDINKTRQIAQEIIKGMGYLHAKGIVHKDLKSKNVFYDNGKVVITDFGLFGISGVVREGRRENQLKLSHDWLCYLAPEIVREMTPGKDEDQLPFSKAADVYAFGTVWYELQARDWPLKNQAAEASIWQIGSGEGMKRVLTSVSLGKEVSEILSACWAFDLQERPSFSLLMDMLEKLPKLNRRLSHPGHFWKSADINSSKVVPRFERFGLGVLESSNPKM

[4] = target: PKCδ–mRFP–MEK2 (UniProt P36507); assay: as above
[5] = target: PKCδ–mRFP–MEK2 (UniProt P36507); assay: translocation-based cellular assay (co-translocation of eGFP-prey with PKCδ–mRFP-bait to the plasma membrane, confocal imaging); living HEK-293T cells co-transfected with three constructs (PKCδ–mRFP–MEK2 bait, TagBFP–KSR1, eGFP-prey); serum-starved, stimulated with EGF, treated with PMA; images 3–5 min after PMA

eGFP–ERK2 (from UniProt P63086 1-358)
binding [1]: no binding

eGFP–14-3-3ζ (from UniProt P63104 1-245)
binding [2]: binds
binding [3]: binds

B1: TagBFP–KSR1 (protein, UniProt Q8IVT5 1-923)
chain: MDRAALRAAAMGEKKEGGGGGDAAAAEGGAGAAASRALQQCGQLQKLIDISIGSLRGLRTKCAVSNDLTQQEIRTLEAKLVRYICKQRQCKLSVAPGERTPELNSYPRFSDWLYTFNVRPEVVQEIPRDLTLDALLEMNEAKVKETLRRCGASGDECGRLQYALTCLRKVTGLGGEHKEDSSWSSLDARRESGSGPSTDTLSAASLPWPPGSSQLGRAGNSAQGPRSISVSALPASDSPTPSFSEGLSDTCIPLHASGRLTPRALHSFITPPTTPQLRRHTKLKPPRTPPPPSRKVFQLLPSFPTLTRSKSHESQLGNRIDDVSSMRFDLSHGSPQMVRRDIGLSVTHRFSTKSWLSQVCHVCQKSMIFGVKCKHCRLKCHNKCTKEAPACRISFLPLTRLRRTESVPSDINNPVDRAAEPHFGTLPKALTKKEHPPAMNHLDSSSNPSSTTSSTPSSPAPFPTSSNPSSATTPPNPSPGQRDSRFNFPAAYFIHHRQQFIFPVPSAGHCWKCLLIAESLKENAFNISAFAHAAPLPEAADGTRLDDQPKADVLEAHEAEAEEPEAGKSEAEDDEDEVDDLPSSRRPWRGPISRKASQTSVYLQEWDIPFEQVELGEPIGQGRWGRVHRGRWHGEVAIRLLEMDGHNQDHLKLFKKEVMNYRQTRHENVVLFMGACMNPPHLAIITSFCKGRTLHSFVRDPKTSLDINKTRQIAQEIIKGMGYLHAKGIVHKDLKSKNVFYDNGKVVITDFGLFGISGVVREGRRENQLKLSHDWLCYLAPEIVREMTPGKDEDQLPFSKAADVYAFGTVWYELQARDWPLKNQAAEASIWQIGSGEGMKRVLTSVSLGKEVSEILSACWAFDLQERPSFSLLMDMLEKLPKLNRRLSHPGHFWKSADINSSKVVPRFERFGLGVLESSNPKM
binding [4]: binds
binding [5]: binds
